The supplement of paper PMC10849652
Some of the results follow.

Sequences of proteins named here, by UniProt entry; tags and fusion partners are left off. A change or cut given only in a name is not applied to a line headed by its entry.
UniProt P56556, whole entry, looked up: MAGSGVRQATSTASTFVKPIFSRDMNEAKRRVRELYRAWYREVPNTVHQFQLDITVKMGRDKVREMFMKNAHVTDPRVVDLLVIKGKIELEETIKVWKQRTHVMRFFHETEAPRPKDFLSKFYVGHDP
UniProt Q96I59: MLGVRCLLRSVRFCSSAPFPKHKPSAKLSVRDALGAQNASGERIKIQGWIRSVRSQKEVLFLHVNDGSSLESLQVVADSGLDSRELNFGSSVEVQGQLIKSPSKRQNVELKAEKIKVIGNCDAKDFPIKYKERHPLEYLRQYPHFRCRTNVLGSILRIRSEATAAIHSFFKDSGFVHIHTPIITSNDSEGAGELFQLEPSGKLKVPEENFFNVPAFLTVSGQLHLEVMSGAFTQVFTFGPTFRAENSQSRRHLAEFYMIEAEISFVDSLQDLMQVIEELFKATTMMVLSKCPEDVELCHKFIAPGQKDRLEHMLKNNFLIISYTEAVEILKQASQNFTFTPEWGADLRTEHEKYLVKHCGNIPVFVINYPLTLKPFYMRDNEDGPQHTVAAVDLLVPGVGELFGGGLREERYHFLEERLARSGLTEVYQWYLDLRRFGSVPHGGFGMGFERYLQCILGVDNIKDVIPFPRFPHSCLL
UniProt Q15843, whole entry, looked up: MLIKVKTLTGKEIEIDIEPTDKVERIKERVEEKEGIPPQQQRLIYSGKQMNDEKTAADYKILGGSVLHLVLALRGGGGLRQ
UniProt O43678, whole entry, looked up: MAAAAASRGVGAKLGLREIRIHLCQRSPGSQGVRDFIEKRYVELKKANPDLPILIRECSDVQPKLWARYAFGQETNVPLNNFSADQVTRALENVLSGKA
UniProt Q8TBE9: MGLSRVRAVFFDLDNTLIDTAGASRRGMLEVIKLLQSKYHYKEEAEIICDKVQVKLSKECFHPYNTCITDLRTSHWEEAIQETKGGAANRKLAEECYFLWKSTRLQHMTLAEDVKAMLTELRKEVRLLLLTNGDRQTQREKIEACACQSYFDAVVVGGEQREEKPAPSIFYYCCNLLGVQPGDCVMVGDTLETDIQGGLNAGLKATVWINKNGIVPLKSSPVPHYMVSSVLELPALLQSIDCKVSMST
UniProt O75489, whole entry, looked up: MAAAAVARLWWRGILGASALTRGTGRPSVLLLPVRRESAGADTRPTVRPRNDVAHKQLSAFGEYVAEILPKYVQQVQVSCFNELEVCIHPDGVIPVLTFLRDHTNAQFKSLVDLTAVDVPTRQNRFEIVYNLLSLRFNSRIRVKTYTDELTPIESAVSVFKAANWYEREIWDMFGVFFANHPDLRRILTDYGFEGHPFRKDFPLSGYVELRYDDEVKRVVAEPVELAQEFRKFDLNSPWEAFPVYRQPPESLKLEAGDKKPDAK
UniProt Q96NT1: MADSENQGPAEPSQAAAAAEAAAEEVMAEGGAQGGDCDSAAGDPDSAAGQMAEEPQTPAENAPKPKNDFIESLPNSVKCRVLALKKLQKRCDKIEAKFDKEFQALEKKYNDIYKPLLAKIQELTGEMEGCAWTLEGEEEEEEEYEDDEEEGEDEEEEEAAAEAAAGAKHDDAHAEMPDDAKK
UniProt Q9UGV2: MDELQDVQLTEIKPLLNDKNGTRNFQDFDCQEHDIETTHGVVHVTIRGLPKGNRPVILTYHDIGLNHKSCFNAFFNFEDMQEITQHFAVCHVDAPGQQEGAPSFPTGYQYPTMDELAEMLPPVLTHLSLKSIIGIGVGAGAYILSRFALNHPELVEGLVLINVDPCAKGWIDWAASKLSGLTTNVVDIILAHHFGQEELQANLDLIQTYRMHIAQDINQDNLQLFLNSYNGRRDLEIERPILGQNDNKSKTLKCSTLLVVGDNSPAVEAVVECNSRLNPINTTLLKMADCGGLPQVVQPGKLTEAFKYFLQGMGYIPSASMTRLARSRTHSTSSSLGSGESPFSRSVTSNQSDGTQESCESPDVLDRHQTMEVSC
UniProt Q6IA69: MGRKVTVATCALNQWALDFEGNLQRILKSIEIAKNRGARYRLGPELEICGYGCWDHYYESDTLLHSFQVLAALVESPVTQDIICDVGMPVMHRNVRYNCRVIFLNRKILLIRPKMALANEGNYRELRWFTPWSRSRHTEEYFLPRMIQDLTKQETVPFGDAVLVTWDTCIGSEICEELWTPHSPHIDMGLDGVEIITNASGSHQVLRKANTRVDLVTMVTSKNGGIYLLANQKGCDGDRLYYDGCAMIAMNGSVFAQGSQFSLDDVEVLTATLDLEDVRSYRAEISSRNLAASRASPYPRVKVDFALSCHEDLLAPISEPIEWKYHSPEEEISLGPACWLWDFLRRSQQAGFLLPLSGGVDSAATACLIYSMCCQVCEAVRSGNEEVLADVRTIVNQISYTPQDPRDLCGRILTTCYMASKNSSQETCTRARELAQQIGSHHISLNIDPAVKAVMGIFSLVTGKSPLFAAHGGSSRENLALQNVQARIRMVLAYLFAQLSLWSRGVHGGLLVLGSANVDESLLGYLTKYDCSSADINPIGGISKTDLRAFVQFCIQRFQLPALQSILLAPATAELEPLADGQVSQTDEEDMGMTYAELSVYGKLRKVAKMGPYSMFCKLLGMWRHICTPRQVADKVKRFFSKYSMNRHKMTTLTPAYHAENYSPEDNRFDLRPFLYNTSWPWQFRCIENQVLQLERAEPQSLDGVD
UniProt O95182, whole entry, looked up: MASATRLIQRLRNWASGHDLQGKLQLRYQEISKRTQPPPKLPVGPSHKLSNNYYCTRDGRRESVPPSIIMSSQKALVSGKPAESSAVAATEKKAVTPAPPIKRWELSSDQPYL
UniProt O75438, whole entry, looked up: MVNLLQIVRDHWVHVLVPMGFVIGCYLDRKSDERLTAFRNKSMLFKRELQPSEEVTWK
UniProt Q9P032: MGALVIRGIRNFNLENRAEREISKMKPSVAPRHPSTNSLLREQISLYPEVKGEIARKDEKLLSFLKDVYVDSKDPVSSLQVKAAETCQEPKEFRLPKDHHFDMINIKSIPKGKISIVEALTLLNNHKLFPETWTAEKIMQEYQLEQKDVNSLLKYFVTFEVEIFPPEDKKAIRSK
UniProt O95298, whole entry, looked up: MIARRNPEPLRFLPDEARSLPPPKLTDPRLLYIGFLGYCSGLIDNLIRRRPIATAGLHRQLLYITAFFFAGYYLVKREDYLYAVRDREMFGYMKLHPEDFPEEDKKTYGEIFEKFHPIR
UniProt Q14686, whole entry, looked up: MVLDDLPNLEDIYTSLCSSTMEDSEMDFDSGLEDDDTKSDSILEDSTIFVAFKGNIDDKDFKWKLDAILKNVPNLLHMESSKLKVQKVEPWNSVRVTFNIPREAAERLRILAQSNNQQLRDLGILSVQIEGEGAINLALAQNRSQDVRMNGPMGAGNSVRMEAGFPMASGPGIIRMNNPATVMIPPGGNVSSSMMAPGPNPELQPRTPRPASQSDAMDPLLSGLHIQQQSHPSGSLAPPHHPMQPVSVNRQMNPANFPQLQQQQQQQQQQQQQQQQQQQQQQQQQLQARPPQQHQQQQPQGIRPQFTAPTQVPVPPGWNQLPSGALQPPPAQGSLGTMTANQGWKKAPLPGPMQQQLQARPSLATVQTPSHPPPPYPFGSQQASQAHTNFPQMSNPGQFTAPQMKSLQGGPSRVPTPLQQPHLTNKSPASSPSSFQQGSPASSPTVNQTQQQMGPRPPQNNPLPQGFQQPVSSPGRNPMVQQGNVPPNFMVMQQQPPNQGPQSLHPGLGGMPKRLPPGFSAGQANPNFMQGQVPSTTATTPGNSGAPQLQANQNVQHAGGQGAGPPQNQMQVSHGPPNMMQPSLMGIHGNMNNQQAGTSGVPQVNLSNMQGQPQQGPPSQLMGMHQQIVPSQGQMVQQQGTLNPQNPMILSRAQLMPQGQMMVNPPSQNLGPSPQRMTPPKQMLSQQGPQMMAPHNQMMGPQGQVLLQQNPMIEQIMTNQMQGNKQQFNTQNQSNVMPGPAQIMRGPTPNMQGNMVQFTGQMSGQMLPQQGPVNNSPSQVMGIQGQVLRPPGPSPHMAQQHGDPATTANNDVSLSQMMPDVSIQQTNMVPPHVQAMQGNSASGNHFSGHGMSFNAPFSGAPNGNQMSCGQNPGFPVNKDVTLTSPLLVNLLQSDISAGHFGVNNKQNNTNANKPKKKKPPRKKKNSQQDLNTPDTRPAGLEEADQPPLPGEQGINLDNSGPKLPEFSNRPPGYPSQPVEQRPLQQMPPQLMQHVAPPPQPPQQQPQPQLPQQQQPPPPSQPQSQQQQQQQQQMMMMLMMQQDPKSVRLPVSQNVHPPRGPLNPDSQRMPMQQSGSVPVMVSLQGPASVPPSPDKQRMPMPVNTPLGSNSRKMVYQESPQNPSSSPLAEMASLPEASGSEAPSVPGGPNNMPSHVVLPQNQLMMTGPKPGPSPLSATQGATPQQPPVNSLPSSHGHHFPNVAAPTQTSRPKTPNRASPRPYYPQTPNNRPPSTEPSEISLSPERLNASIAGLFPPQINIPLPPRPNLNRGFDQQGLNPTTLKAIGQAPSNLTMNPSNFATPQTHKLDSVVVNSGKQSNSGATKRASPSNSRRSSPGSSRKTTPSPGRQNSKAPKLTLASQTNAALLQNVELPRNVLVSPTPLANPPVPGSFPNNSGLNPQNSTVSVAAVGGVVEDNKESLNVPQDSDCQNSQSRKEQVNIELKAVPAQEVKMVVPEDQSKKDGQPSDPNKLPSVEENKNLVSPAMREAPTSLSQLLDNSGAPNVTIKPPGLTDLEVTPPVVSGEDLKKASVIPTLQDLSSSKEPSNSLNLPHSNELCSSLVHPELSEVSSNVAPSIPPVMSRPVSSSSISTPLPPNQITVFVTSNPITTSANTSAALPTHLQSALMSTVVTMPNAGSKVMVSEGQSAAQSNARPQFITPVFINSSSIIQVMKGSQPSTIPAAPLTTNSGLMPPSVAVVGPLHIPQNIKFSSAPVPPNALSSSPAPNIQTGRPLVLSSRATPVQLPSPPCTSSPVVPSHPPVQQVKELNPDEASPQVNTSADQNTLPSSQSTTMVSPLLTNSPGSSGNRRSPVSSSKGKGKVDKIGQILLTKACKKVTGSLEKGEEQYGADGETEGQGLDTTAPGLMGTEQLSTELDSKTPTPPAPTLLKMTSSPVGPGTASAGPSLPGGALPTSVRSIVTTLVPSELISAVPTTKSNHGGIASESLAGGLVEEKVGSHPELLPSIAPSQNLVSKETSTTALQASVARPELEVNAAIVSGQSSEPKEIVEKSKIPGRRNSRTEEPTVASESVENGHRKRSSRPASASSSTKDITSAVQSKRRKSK
UniProt O95167, whole entry, looked up: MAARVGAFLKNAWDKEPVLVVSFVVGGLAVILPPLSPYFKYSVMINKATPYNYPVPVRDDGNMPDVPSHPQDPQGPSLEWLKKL
UniProt Q8NI08: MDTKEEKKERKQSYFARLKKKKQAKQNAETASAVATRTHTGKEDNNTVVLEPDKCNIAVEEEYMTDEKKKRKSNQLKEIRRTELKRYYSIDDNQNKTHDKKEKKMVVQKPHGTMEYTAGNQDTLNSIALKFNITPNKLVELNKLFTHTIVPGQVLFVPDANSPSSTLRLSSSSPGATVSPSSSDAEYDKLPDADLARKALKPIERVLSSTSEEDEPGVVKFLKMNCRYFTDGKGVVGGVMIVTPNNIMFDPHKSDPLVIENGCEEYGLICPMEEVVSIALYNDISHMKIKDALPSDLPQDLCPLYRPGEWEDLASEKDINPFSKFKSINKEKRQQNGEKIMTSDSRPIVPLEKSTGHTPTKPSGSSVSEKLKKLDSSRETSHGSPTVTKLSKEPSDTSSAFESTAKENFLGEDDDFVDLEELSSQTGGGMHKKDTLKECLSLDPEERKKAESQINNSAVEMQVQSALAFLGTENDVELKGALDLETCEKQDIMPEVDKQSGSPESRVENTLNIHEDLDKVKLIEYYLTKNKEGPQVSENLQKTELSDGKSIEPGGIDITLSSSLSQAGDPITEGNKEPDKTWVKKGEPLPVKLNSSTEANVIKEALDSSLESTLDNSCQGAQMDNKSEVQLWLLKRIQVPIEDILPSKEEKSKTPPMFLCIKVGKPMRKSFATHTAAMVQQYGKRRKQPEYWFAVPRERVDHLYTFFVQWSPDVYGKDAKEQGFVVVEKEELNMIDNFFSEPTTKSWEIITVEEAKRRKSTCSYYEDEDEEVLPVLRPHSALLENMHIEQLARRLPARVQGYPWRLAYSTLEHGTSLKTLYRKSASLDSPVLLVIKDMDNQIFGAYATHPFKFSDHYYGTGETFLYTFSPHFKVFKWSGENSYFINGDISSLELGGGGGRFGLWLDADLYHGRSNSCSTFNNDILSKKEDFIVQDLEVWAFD
UniProt O95299, whole entry, looked up: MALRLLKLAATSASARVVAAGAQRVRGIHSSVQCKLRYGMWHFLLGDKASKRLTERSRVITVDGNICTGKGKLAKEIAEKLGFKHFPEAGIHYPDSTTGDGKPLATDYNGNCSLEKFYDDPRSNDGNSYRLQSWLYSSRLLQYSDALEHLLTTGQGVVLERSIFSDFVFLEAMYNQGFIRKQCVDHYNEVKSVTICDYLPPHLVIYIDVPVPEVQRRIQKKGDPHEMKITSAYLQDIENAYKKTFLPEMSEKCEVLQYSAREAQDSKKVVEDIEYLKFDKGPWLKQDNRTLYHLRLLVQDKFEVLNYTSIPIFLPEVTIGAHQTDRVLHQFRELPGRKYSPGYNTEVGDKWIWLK
UniProt P56181: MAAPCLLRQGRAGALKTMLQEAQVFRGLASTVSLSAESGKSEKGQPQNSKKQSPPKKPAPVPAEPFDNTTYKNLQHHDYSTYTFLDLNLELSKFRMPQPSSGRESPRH

These targets were tested with O=C1NC(=O)C(c2cnc3ccccn23)=C1c1cn2c3c(cc(F)cc13)CN(C(=O)N1CCCCC1)CC2 (assay: log2 fold change, soluble protein after heating vs DMSO (PISA); higher = thermal stabilisation; K562 cells, 10 uM, 30 min; active = over 0.2 and 3.5 SD of the protein, either way, in both replicates (recomputed)).
Method in brief: (§1)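 Soluble protein was quantified by TMTpro 16plex LC-MS/MS after channel sums were equalised. It was obtained as the supernatant after 21,000xg for 90 min from pooled aliquots of K562 cells (2×10^6 cells/mL, 10 μM compound, 30 min) heated for 3 min across 48°C-58°C and extracted in PBS with 0.5% NP-40 at 4°C. Thermal stability values are relative to control samples and come from duplicates. They are given as log2 fold changes.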

log2 fold change, inactive:
NDUFA6 (UniProt P56556) -0.131
NARS2 (UniProt Q96I59) -0.064
NEDD8 (UniProt Q15843) -0.071
NDUFA2 (UniProt O43678) -0.127
NDUFAF7 (UniProt Q7L592) -0.076
NDUFB5 (UniProt O43674) 0.018
NADK (UniProt O95544) -0.01
NANP (UniProt Q8TBE9) -0.048
NDUFS3 (UniProt O75489) 0.029
NAP1L4 isoform 2 (UniProt Q99733) -0.037
NAP1L5 (UniProt Q96NT1) -0.013
NDRG3 (UniProt Q9UGV2) -0.038
NADSYN1 (UniProt Q6IA69) 0.013
NDUFA7 (UniProt O95182) -0.047
NDUFB1 (UniProt O75438) -0.124
NAA15, A0A0B4J1W3 -0.131
NA, A0A096LPI6 -0.043
NCEH1 isoform 2 (UniProt Q6PIU2) 0.003
NDUFAF4 (UniProt Q9P032) -0.042
NDUFC2 (UniProt O95298) -0.039
NAF1 (UniProt Q96HR8) 0.054
NCOA6 (UniProt Q14686) -0.106
NDUFS4 (UniProt O43181) 0.007
NAGK isoform 2 (UniProt Q9UJ70) -0.062
NDUFA4 (UniProt O00483) -0.056
NACC1 (UniProt Q96RE7) -0.257
NEFH (UniProt P12036) 0.202
NCSTN (UniProt Q92542) 0.054
NDUFA3 (UniProt O95167) -0.093
NCOA7 (UniProt Q8NI08) -0.093
NDUFA10 (UniProt O95299) -0.067
NACA (UniProt E9PAV3) -0.008
NDUFV3 isoform 2 (UniProt P56181) -0.002

Each target was assayed with c1cc(OCCN2CCCCC2)cc(-c2n[nH]c3ccc(-c4nnc[nH]4)cc23)c1 in the same assay as above.
Method in brief: as §1

log2 fold change, inactive:
NDUFA6 (UniProt P56556) -0.011
NARS2 (UniProt Q96I59) -0.026
NEDD8 (UniProt Q15843) -0.095
NDUFA2 (UniProt O43678) -0.005
NDUFAF7 (UniProt Q7L592) -0.023
NDUFB5 (UniProt O43674) -0.024
NADK (UniProt O95544) -0.058
NANP (UniProt Q8TBE9) -0.092
NDUFS3 (UniProt O75489) -0.015
NAP1L4 isoform 2 (UniProt Q99733) 0.031
NAP1L5 (UniProt Q96NT1) 0.069
NDRG3 (UniProt Q9UGV2) -0.037
NADSYN1 (UniProt Q6IA69) -0.087
NDUFA7 (UniProt O95182) -0.039
NDUFB1 (UniProt O75438) 0.012
NAA15, A0A0B4J1W3 -0.124
NA, A0A096LPI6 -0.015
NCEH1 isoform 2 (UniProt Q6PIU2) -0.007
NDUFAF4 (UniProt Q9P032) -0.007
NDUFC2 (UniProt O95298) 0.002
NAF1 (UniProt Q96HR8) -0.015
NCOA6 (UniProt Q14686) -0.14
NDUFS4 (UniProt O43181) -0.039
NAGK isoform 2 (UniProt Q9UJ70) 0
NDUFA4 (UniProt O00483) -0.098
NACC1 (UniProt Q96RE7) -0.057
NEFH (UniProt P12036) -0.314
NCSTN (UniProt Q92542) -0.146
NDUFA3 (UniProt O95167) -0.025
NCOA7 (UniProt Q8NI08) -0.005
NDUFA10 (UniProt O95299) -0.032
NACA (UniProt E9PAV3) -0.067
NDUFV3 isoform 2 (UniProt P56181) -0.067
